At least one structure is not confirmed: it was looked up by name or label, or the drawing left a doubt.
Test system: human colon crypts
Assay: Screening of reagents for optimization of human intestinal organoids culture (plating efficiency)
Format: cell-based

For `CSCCC(NC(=O)C(Cc1c[nH]c2ccccc12)NC(=O)CNC(=O)C(Cc1ccc(O)cc1)NC(=O)C(C)NC(=O)C(CCC(=O)O)NC(=O)C(CCC(=O)O)NC(=O)C(CCC(=O)O)NC(=O)[C@H](CCC(=O)O)NC(=O)[C@H](CCC(=O)O)NC(=O)[C@H](CC(C)C)NC(=O)[C@H](Cc1c[nH]c2ccccc12)NC(=O)[C@@H]1CCCN1C(=O)CNC(=O)[C@@H](N)CCC(=O)O)C(=O)NC(CC(=O)O)C(=O)NC(Cc1ccccc1)C(N)=O` (stereo in doubt) [Gastrin], which “Activity (plating efficiency compared with control after 4 days culture)” value is on record?
The value was 1+ (key: 0 = no change; 1+ = <50% increase; 2+ = 50-100% increase; 3+ = >100% increase; 1− = 0-50%; 2− = 50-100% decrease; 3− = >100% decrease).

What about the “Effect on plating efficiency” value of the same compound?
Its value is “marginal”.

— US20140243227A1, “CULTURE MEDIA FOR STEM CELLS” (Koninklijke Nederlandse Akademie van Wetenschappen, priority 2011, published 2014)
